In PubChem BioAssay AID1347076 (National Center for Advancing Translational Sciences (NCATS), 2019):
Values joined by “and” are separate entries in the source; they are usually repeats but may differ in a detail not shown here. Identical values can stand only once. Screen size: about 400,000 compounds; about 13,000 (3.2%) were called active. This list was built around the results that the source calls inconclusive (neither active nor inactive); the mix of calls is not that of the screen. Calls follow the shape of the dose curve; as a rule, active = well fitted cell-killing curve with a large enough effect; inconclusive = small, poorly fitted or top-dose-only effect, or effect the other way; inactive = flat fitted curve, though single readings scatter. A potency beside an inconclusive call is a rough fit, not a confirmed value.

experiment: qHTS assay for MDR1-selective chemotherapeutics: Primary screen using the drug-selected MDR subline cells KB-V1; details: KB-V1 MDR cells viability, CellTiter-Glo, 72 h; activity change, negative = cytotoxicity: at 46.1 µM (top of the series); also: nearly all actives have a fitted effect of over 60% in size
Procedure, shortened: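 Drug-selected KB-V1 cells, grown in DMEM lacking phenol red with 10% FBS, receive compound titrations; after three days at 37 degrees C, surviving cell ATP is quantified by CellTiter-Glo luminescence and responses normalized and curve-fitted.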
% is scaled to controls: 0 for no effect and ±100 for the full control effect; potency is read from the fitted curve at half-maximal effect.

Question: Which Potency does the source give for c1ccc2[nH]c(SCc3ccc(-c4nnco4)cc3)nc2c1 here?
Answer: The Potency was “inactive”.

Question: Which Potency does the source give for CCOc1ccccc1NC(=O)C1COc2ccccc2O1 (centres undefined) here?
Answer: Its Potency is “inactive”.

Question: Which Potency does the source give for CCOc1cc2c(cc1OC)C(NC(=O)C(F)(F)F)CC2=O (centres undefined) here?
Answer: The Potency was inconclusive: 20.6 µM [cytotoxic, single point].

Question: Which Potency does the source give for Cc1ccc(S(=O)(=O)CCC(=O)OCC(=O)NCC(=O)Nc2cccc(C)c2C)cc1 here?
Answer: The Potency was “inactive”.

Question: Which Potency does the source give for OC(c1ccccc1)(c1ccccc1)C1CCN(C(=S)NC2CCCC2)CC1 here?
Answer: Its Potency is “inactive”.

Question: Which Potency does the source give for CCCCN(C(=O)CCCc1nc2ccccc2s1)c1c(N)n(CC(C)C)c(=O)[nH]c1=O here?
Answer: Its Potency is inconclusive: 29.1 µM [cytotoxic, single point].

Question: With O=C(NCCNC(=O)c1ccccc1Br)c1cccnc1 as the compound, how does the Potency read?
Answer: Its Potency is “inactive”.

Question: With N#Cc1c(N)n(-c2ccccc2)c(=O)c2cc([N+](=O)[O-])ccc12 as the compound, how does the Potency read?
Answer: The Potency was inconclusive: 8.2 µM [cytotoxic, partial curve, poor fit].

Question: With O=C1CCN(CCc2ccccc2)CCN1[C@H](COc1ccccc1)c1ccccc1 as the compound, how does the Potency read?
Answer: The Potency was inconclusive: 4.11 µM [cytotoxic, partial curve] and inconclusive: 29.1 µM [cytotoxic, single point].

Question: For COc1ccc(N2CC(C(=O)N/N=C/c3ccc(C)cc3)CC2=O)cc1 (centres undefined), which Potency is on record?
Answer: Its Potency is active: 1.46 µM.

Question: Which Potency does the source give for Cc1ccc(C(=O)NCC(=O)N2CCc3ccccc3C2)cc1C here?
Answer: The Potency was “inactive”.

Question: Which Potency does the source give for Cn1nnnc1SCCNCc1ccc(OCc2ccccc2)cc1 here?
Answer: The Potency was inconclusive: 14.6 µM [cytotoxic, partial curve].

Question: For COc1ccc(N2CCN(CC(=O)Nc3ccc(SC(F)F)cc3)CC2)cc1, which Potency is on record?
Answer: Its Potency is “inactive”.

Question: With Cc1ccc(-n2c3nc(=O)[nH]c(=O)c-3cc3cc([N+](=O)[O-])ccc32)cc1C as the compound, how does the Potency read?
Answer: The Potency was inconclusive: 29.1 µM [cytotoxic, single point].

Question: For COc1ccc(Cn2ccnc2SCC(=O)Nc2cccc(NC(C)=O)c2)cc1, which Potency is on record?
Answer: The Potency was inconclusive: 25.9 µM [cytotoxic, single point].

Question: Which Potency does the source give for Cc1ccc(CC(=O)Nc2ccncc2)cc1 here?
Answer: The Potency was “inactive”.

Question: Which Potency does the source give for Cc1ccc(S(=O)(=O)N(CC(=O)N2CCc3ccccc3C2)c2ccc(C)c(C)c2)cc1 here?
Answer: Its Potency is “inactive”.

Question: Which Potency does the source give for COc1cccc(-c2cc(NC=O)c3ncc(-c4ccc(OC)c(OC)c4)n3c2)c1 here?
Answer: The Potency was active: 14.6 µM.

Question: For O=C(c1cnccn1)N(Cc1cccs1)C1(C(=O)NC2CCCCC2)CCCCC1, which activity change, negative = cytotoxicity is on record?
Answer: The activity change, negative = cytotoxicity was inconclusive: -8.89%.

Question: With COCCCNc1ncnc2c1sc1nc(-c3ccco3)c3c(c12)CC(C)(C)OC3 as the compound, how does the Potency read?
Answer: The Potency was inconclusive: 20.6 µM [cytotoxic, partial curve, poor fit].

Question: With CCC1CCc2c(c3ccccc3[nH]c2=O)O1 (centres undefined) as the compound, how does the Potency read?
Answer: Its Potency is inconclusive: 20.6 µM [cytotoxic, single point].

Question: With COCCOc1ccc(C(F)(F)F)cc1Nc1nc2ccccc2o1 as the compound, how does the Potency read?
Answer: The Potency was inconclusive: 11.6 µM [cytotoxic, partial curve].

Question: Which Potency does the source give for CC(NC(=O)c1ccco1)c1ccc2c(c1)OCO2 (centres undefined) here?
Answer: Its Potency is inconclusive: 32.6 µM [rising, single point].

Question: With COc1ccc(N/C=C2\CCOC2=O)cc1 as the compound, how does the Potency read?
Answer: The Potency was “inactive”.

Question: With COc1ccc(C(=O)N2CCCC(c3nc(-c4ccc(C)o4)no3)C2)cc1OC (centres undefined) as the compound, how does the Potency read?
Answer: The Potency was inconclusive: 7.31 µM [cytotoxic, partial curve].

Question: Which Potency does the source give for CCOC(=O)c1c(NC(C)=O)sc2c(O)c(Br)ccc12 here?
Answer: The Potency was inconclusive: 16.4 µM [cytotoxic, partial curve].

Question: With FC(F)(F)c1cccc(-c2cc3nc(NCCOc4ccccc4)ccn3n2)c1 as the compound, how does the Potency read?
Answer: The Potency was “inactive”.

Question: Which Potency does the source give for CC(NC(=S)Nc1cccc(F)c1)C(c1cccs1)N1CCOCC1 (centres undefined) here?
Answer: The Potency was “inactive”.

Question: For CCc1ccc(CNC(=O)C2CCCN(c3nn4cc(-c5ccc(F)cc5)nc4s3)C2)cc1 (centres undefined), which Potency is on record?
Answer: The Potency was “inactive”.

Question: Which Potency does the source give for O=C(Nc1cc(F)ccc1F)c1ccc2c(c1)nnn2C1CCCC1 here?
Answer: Its Potency is “inactive”.

Question: With N#CC1(NC(=O)CN2CCN(S(=O)(=O)c3ccccc3F)CC2)CCCC1 as the compound, how does the Potency read?
Answer: The Potency was inconclusive: 25.9 µM [cytotoxic, partial curve, poor fit].

Question: For Cc1ccc(CN2C3=NCCN3c3ccccc32)cc1, which Potency is on record?
Answer: Its Potency is inconclusive: 29.1 µM [cytotoxic, single point].

Question: Which Potency does the source give for CCCCCc1ccc(S(=O)(=O)Nc2cc(C)ccn2)cc1 here?
Answer: Its Potency is “inactive”.

Question: For COc1cc(-c2noc(C)c2C#CCCN2C(=O)c3ccccc3C2=O)cc(OC)c1OC, which Potency is on record?
Answer: Its Potency is “inactive”.

Question: Which Potency does the source give for CCOC(=O)c1ccccc1NC(=O)N1CCCN(S(=O)(=O)c2ccc3c(ccn3CC)c2)CC1 here?
Answer: The Potency was active: 14.6 µM.

Question: For COc1ccc(C(=O)C2CCCN(S(=O)(=O)c3cccnc3)C2)c(C)c1 (centres undefined), which Potency is on record?
Answer: The Potency was inconclusive: 14.6 µM [cytotoxic, partial curve, poor fit].

Question: With Nn1cnnc1N/N=C/c1cccc(Cl)c1Cl as the compound, how does the Potency read?
Answer: The Potency was “inactive”.

Question: For O=C(COC(=O)CC(c1ccccc1)c1ccccc1)NCc1ccc(Cl)cc1, which Potency is on record?
Answer: The Potency was active: 23.1 µM.

Question: For CC1(C(=O)N2Cc3ccccc3C2)CCN1C(=O)Cc1ccccc1 (centres undefined), which Potency is on record?
Answer: The Potency was “inactive”.

Question: Which Potency does the source give for CC(=O)c1c(N2CCN(c3ccc(F)cc3)CC2)nc(=S)n(Cc2ccccc2)c1C here?
Answer: The Potency was inconclusive: 10.3 µM [cytotoxic, partial curve].

Question: Which Potency does the source give for COc1ccccc1C(=O)N/C(=C\c1ccc(Br)cc1)C(=O)N1CCCC1 here?
Answer: Its Potency is inconclusive: 4.61 µM [cytotoxic, partial curve, poor fit].

Question: For O/N=C/c1ccc(OCc2ccccc2)c(Br)c1, which Potency is on record?
Answer: Its Potency is active: 11.6 µM.

Question: Which Potency does the source give for CCOc1ccc(NC(=S)NCCN2CCN(Cc3ccccc3)CC2)cc1 here?
Answer: Its Potency is inconclusive: 1.3 µM [cytotoxic, full curve].

Question: Which Potency does the source give for O=C(OC(c1ccccc1)c1nccc2ccccc12)c1cc([N+](=O)[O-])cc([N+](=O)[O-])c1 (centres undefined) here?
Answer: The Potency was active: 8.2 µM.

Question: For O=CN1CCN(C(=O)c2ccc(-c3nc4ccccc4s3)s2)CC1, which Potency is on record?
Answer: Its Potency is inconclusive: 18.4 µM [cytotoxic, single point].

Question: For Cc1nnc(OCC(=O)NCCC2=CCCCC2)c2ccccc12, which Potency is on record?
Answer: Its Potency is “inactive”.

Question: Which Potency does the source give for Cc1ccc(-c2nnc(OCCN3CCOCC3)c3ccccc23)cc1 here?
Answer: Its Potency is inconclusive: 35.5 µM [cytotoxic, single point].

Question: For COc1ccccc1C(=O)NNC(=S)NC(=O)c1ccco1, which Potency is on record?
Answer: Its Potency is “inactive”.

Question: For O=C(Nc1cccnc1)c1ccc(Cl)c(S(=O)(=O)N2CCCCCC2)c1, which Potency is on record?
Answer: Its Potency is inconclusive: 2.91 µM [cytotoxic, full curve, poor fit].
